Measured values: patent publication US9169463B2, “Stem cell for therapeutic use which is derived from human monocyte, and method for inducing same” (OTSUKA PHARMACEUTICAL CO., LTD., priority 2008, dated 2015)

Tested on: peripheral blood monocytes
Test: Comparison of stem cell-inducing activities of various gangliosides (viable cells, CellTiter-Glo)
Type: cell-based, human
Settings: second week of culture
Description: More specifically, gangliosides were added to a culture medium at a final concentration of 100 μg/ml, and peripheral blood monocytes were cultured.
rhM-CSF was added thereto at a final concentration of 25 ng/ml. Then, the number of viable cells in the second week of culture was quantified as luciferase activity using CellTiter-Glo (Promega).

Row | Substance | cell morphology (FIG. 4)
1 | aNeu5Ac(2-3)bDGalp(1-3)bDGalNAc(1-4)[aNeu5Ac(2-3)]bDGalp(1-4)bDGlcp(1-1)Cer [GD1a] | no difference in cell morphology was observed
2 | aNeu5Ac(2-3)bDGalp(1-3)bDGalNAc(1-4)[aNeu5Ac(2-8)aNeu5Ac(2-3)]bDGalp(1-4)bDGlcp(1-1)Cer [GT1b] | no difference in cell morphology was observed
3 | bDGalp(1-3)bDGalNAc[aNeu5Ac(2-3)]bDGalp(1-4)bDGlcp(1-1)Cer [GM1] | no difference in cell morphology was observed

Some entries repeat one wording, which the source may state once for all of them.
